The list shows a part of the results. These are further read-outs of the screen, such as a control signal, another cell line or another target. No call is given for them. The list favours compounds with an active or inconclusive main result. The note in brackets gives the kind of curve behind each potency; many fits are weak.
Assay: qHTS Assay to Find Inhibitors of Chronic Active B-Cell Receptor Signaling
Conditions: ABC-DLBCL IkBa-CBG/CBR reporter, luminescence ratio (green luciferase fused to IkBa over red control in TMD8 lymphoma cells), 4 h
Outline: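 Doxycycline induced both beetle luciferases in TMD8 lymphoma cells; IKK-driven degradation limits the IkappaBalpha-fused green signal, while red luminescence normalises for cell number and nonspecific effects. Compounds tested up to 46 uM, 4 hrs.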

[1] = measured here: CBR red luminescence, cell number
[2] = measured here: IkBa-CBG green luminescence

SMILES | AC50 [1] | AC50 [2]
CCOc1ccc(CCNC(=O)CCc2nnc3ccc(N4CCOCC4)nn23)cc1OCC | 2.82 µM [rising, single point] | –
COc1ccc(CNC(=O)c2cc(-c3ccc(OC)c(OC)c3)on2)cc1 | 0.231 µM [falling, full curve] | –
O=c1[nH]c2ccccc2cc1CN(CC1CCCO1)S(=O)(=O)c1ccccc1 (stereo unspecified) | 3.16 µM [falling, full curve] | –
O=C(Nc1ccc(-c2nc3ccccc3o2)cc1)C1CCCO1 (stereo unspecified) | 5.8 µM [falling, partial curve, poor fit] | –
COc1ccccc1NC(=O)c1ccc(-c2ccccc2[N+](=O)[O-])o1 | 12.6 µM [falling, partial curve, poor fit] | –
Cc1ccc(C(=O)N2CCC(C(=O)NCc3cccnc3)CC2)cc1 | 18.4 µM [rising, single point] | –
Cc1ccc(Nc2nc(Cl)nc(NC3CCCCC3)n2)cc1 | 1.41 µM [falling, full curve, poor fit] | –
CCOC(=O)c1[nH]c2ccc(C)cc2c1N | 23.1 µM [falling, single point] | –
CCc1ccc(NC(=O)CSc2ccccn2)cc1 | 1.26 µM [rising, partial curve, poor fit] | –
COc1ccc(-c2nnn(CC(=O)c3c[nH]c4ccccc34)n2)cc1OC | 6.51 µM [rising, single point] | –
CCCC(=O)NC(NC1CCS(=O)(=O)C1)C(Cl)(Cl)Cl (stereo unspecified) | 10 µM [rising, partial curve, poor fit] | –
Cc1cnc(NC(=O)/C=C/c2ccc(Br)o2)s1 | 0.794 µM [rising, partial curve, poor fit] | –
COc1ccc(-c2csc3ncnc(Cl)c23)cc1 | 3.16 µM [falling, partial curve, poor fit] | –
COCCn1c(SCC(=O)N2CCCCCC2)nc2c(c1=O)SCC2 | 14.1 µM [falling, partial curve] | –
COc1cccc(/C=N/Nc2ncc(C(F)(F)F)cc2Cl)c1O | – | 0.231 µM [falling, partial curve, poor fit]
O=S(=O)(c1cccc2nsnc12)N1CCCC1 | – | 17.8 µM [falling, partial curve, poor fit]
Cc1ccccc1Nc1nnc(SCc2cc(=O)n3ccsc3n2)s1 | 0.891 µM [falling, full curve, poor fit] | –
Cc1ccc(/C=N/NC(=O)C2COc3ccccc3O2)s1 (stereo unspecified) | 20.6 µM [rising, partial curve] | 20.6 µM [falling, partial curve]
Cc1ccc(S(=O)(=O)/N=C(\N)Nc2nc(C)c3cc(C)ccc3n2)cc1 | 11.2 µM [falling, partial curve, poor fit] | –
O=C(CCC(=O)N1CCOc2ccccc21)NCCCN1CCN(Cc2ccccc2)CC1 | 35.5 µM [falling, single point] | –
COc1ccc(Nc2c3c(c(C#N)c4nc5ccccc5n24)CCC3)cc1 | 3.55 µM [falling, partial curve, poor fit] | –

SMILES | AC50 [1] | AC50 [2]
Cc1cc([N+](=O)[O-])nn1CCCC(=O)Nc1cc(Oc2ccc(F)cc2)cc([N+](=O)[O-])c1 | 11.6 µM [rising, partial curve, poor fit] | –
CSc1ccc(C=NNc2ccc(S(=O)(=O)Nc3ccccc3C(=O)O)cc2[N+](=O)[O-])cc1 | 18.4 µM [rising, single point] | –
COc1ccc(C(=O)Nc2cccc(OC(=O)c3ccco3)c2)cc1 | 11.2 µM [falling, partial curve, poor fit] | –
Cc1cc[n+]2c3c(cccc13)CCC2 | 0.206 µM [falling, partial curve, poor fit] | –
O=C(O)/C(=C\c1ccc(-c2ccc(F)cc2)o1)c1ccccc1 | 35.5 µM [falling, single point] | –
O=C(NC(=O)N1CCN(c2ccccc2F)CC1)c1ccccc1 | 1.41 µM [rising, full curve, poor fit] | –
COc1ccccc1NC(=O)CSc1nnnn1-c1ccccc1F | 12.6 µM [falling, single point] | –
O=C(O)CCSc1ccc2ccccc2n1 | 20 µM [falling, partial curve, poor fit] | –
O=C(Nc1nnc(SCc2ccccc2Cl)s1)C1COc2ccccc2O1 (stereo unspecified) | 7.31 µM [rising, partial curve] | –
CCN(CC(=O)NCc1ccc(Cl)cc1)S(=O)(=O)c1ccc(F)cc1 | 0.562 µM [rising, full curve, poor fit] | –
C[N+]1=C(/C=C/Nc2ccccc2Cl)C(C)(C)c2ccccc21 | 11.6 µM [falling, single point] | –
CN(C)c1ccc(NC(=O)C(=O)C2C(=O)Nc3ccccc32)cc1 (stereo unspecified) | 3.16 µM [falling, single point] | –
CC[n+]1c(/C=C/N(C)c2ccccc2)oc2ccc(Cl)cc21 | 29.1 µM [falling, single point] | –
Cc1ccccc1NC(=O)CSc1nnc(C)c2ccccc12 | 35.5 µM [falling, single point] | –
CC(C)c1ccc(NC(=O)Cc2c(C(=O)O)n(C)c3ccccc23)cc1 | 2.24 µM [rising, full curve, poor fit] | –
COc1ccccc1NC(=O)CSc1nnc(-c2ccco2)n1N | 12.6 µM [falling, partial curve] | –
COC(C[C@@H]1O[C@@H]1C(=O)COCc1ccccc1)OC | 35.5 µM [rising, single point] | –
CCN(c1cccc(C)c1)S(=O)(=O)c1cn(CC(=O)OC)c2ccc([N+](=O)[O-])cc12 | 3.16 µM [falling, partial curve, poor fit] | –
O=C1OCCN1c1c(-c2ccccc2)c(-c2cccs2)nc2c(-c3ccccc3)cccc12 | 0.631 µM [falling, partial curve, poor fit] | –
CCOC(=O)Cc1csc(NC(=O)c2ccc(S(=O)(=O)N(CCOC)CCOC)cc2)n1 | 15.8 µM [falling, single point] | –
COc1ccc(CC(NC(C)=O)C(=O)NC2CCN(C(=O)Nc3ccccc3Cl)CC2)cc1OC (stereo unspecified) | 0.146 µM [rising, full curve, poor fit] | –

Reprinted at random: three records from the list
SMILES | AC50 [1] | AC50 [2]
Cc1ccccc1NC(=O)CSc1nnc(C)c2ccccc12 | 35.5 µM [falling, single point] | –
COc1ccc(CC(NC(C)=O)C(=O)NC2CCN(C(=O)Nc3ccccc3Cl)CC2)cc1OC (stereo unspecified) | 0.146 µM [rising, full curve, poor fit] | –
COc1ccccc1NC(=O)CSc1nnc(-c2ccco2)n1N | 12.6 µM [falling, partial curve] | –

Next part.

SMILES | AC50 [1] | AC50 [2]
O=C(N/N=C1\CCS(=O)(=O)c2ccc(F)cc21)c1ccc(O)cc1 | 6.31 µM [falling, partial curve, poor fit] | –
O=C(COC(=O)c1cc(Br)ccc1O)NNC(=O)c1cccs1 | 25.9 µM [rising, partial curve, poor fit] | 23.1 µM [falling, single point]
Cn1cc(C(=O)c2ccc(Cl)cc2Cl)cc1C(=O)N/N=C(\N)COc1ccc(Cl)cc1 | 35.5 µM [falling, single point] | –
Cc1ccc(C2N=C(N)Nc3nc(=O)c4ccccc4n32)cc1 (stereo unspecified) | 15.8 µM [falling, partial curve, poor fit] | –
CN1CCC(=O)N([C@H](CSc2ccccc2)c2ccccc2)CC1 | 35.5 µM [falling, partial curve, poor fit] | –
CC(=O)c1c(C)nc(-c2ccc(Cl)cc2)nc1N | 3.55 µM [rising, partial curve, poor fit] | –
Cc1cc(NS(=O)(=O)c2ccc(NC(=O)COc3ccccc3C(C)(C)C)cc2)no1 | 1.58 µM [falling, full curve, poor fit] | –
O=C(CSc1nnc(SCc2cccc3ccccc23)s1)N/N=C/C=C/c1ccccc1[N+](=O)[O-] | 14.6 µM [falling, partial curve, poor fit] | –
O=C(NCC(=O)N1CCN(c2ccc(C(F)(F)F)cn2)CC1)c1ccc(Br)o1 | 29.1 µM [falling, partial curve, poor fit] | –
Nc1nnc(SCCN2C(=O)c3ccccc3S2(=O)=O)s1 | 11.6 µM [rising, partial curve, poor fit] | –
O=C(N/N=C/C1C(c2ccccc2)C1(Cl)Cl)c1cccc(Br)c1 (stereo unspecified) | 15.8 µM [falling, partial curve, poor fit] | –
COCCNC(=O)c1cc2sccc2n1C | 31.6 µM [rising, single point] | –
O=C(/C=C/c1ccccc1Cl)NC1CCCCC1 | 4.47 µM [falling, full curve] | –
COc1ccc(C(=O)Nc2ccc([N+](=O)[O-])cn2)c(OC)c1 | 0.366 µM [rising, full curve] | –
c1ccc2c(CN3CCSCC3)cccc2c1 | 17.8 µM [rising, single point] | –
O=C1/C(=C\c2ccccc2)SC(=S)N1CCC(=O)N1CCCCC1CCO (stereo unspecified) | 35.5 µM [falling, partial curve, poor fit] | –
C=CCn1c(SC(C)C(=O)NCc2ccc3c(c2)OCO3)nc2scc(-c3ccccc3)c2c1=O (stereo unspecified) | 35.5 µM [falling, single point] | –
O=C(CSc1nnc(-c2ccccn2)n1-c1ccc(Cl)cc1)Nc1ccc2c(c1)OCO2 | 29.1 µM [rising, single point] | –
N#CC1=C(N)Oc2cc(N)ccc2C1c1cccc(Br)c1 (stereo unspecified) | 14.1 µM [rising, partial curve] | 6.31 µM [falling, partial curve]
COc1ccc(CCNc2ncnc3c2oc2ccccc23)cc1OC | 11.2 µM [falling, partial curve, poor fit] | –
CC(NCc1cccn1C)c1ccccc1 (stereo unspecified) | 3.16 µM [rising, single point] | –
